Values from PubChem BioAssay AID1224826 (NIAID, 2016)

Test: 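Genes that change LPS-induced Tnf promoter activity in mouse macrophages when knocked down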 (primary screen)
Cell system: RAW264.7 G9 macrophages from mouse bearing reporters for p65 (GFP) and the Tnf promoter (mCherry)
Reagent: siRNA pool against mouse genes, 100 nM
Timing: 16 h of LPS stimulation, after 2 days of siRNA transfection
Conditions: bacterial lipopolysaccharide (Salmonella minnesota R595), 10 ng/ml
Measured: 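Nuclear mCherry signal of the Tnf promoter reporter measured by imaging after background removal, scaled to each plate median and turned into robust z-scores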
Scale: Tnf reporter robust z-score: higher = stronger Tnf promoter reporter signal after LPS
Call rule: 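a well counts as active at a score of -1.3 or below (Tlr4 knock-down control median) or above 3 (raised signal); controls and wells holding fewer than 50 cells are excluded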
Meaning of the calls: active = Tnf reporter clearly lowered or raised; inactive = no clear change in Tnf reporter
The deposit covers about 17,000 reagents; shown is a random part of them. Over the whole deposit, about 1,110 (6.6%) got an active call. 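Active means lowered or raised reporter signal; replicate intensities are raw and not normalised per plate.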 Reagents against one gene are numbered here. Further read-outs or replicates are left out here. No sequences are given here.

Pla2g2a: Tnf reporter robust z-score = -0.23; fewer than 50 cells in well = enough cells in well; Call = inactive
Timm17b: Tnf reporter robust z-score = -0.15; fewer than 50 cells in well = enough cells in well; Call = inactive
Fcho2: Tnf reporter robust z-score = 0.38; fewer than 50 cells in well = enough cells in well; Call = inactive
Lingo2: Tnf reporter robust z-score = -0.08; fewer than 50 cells in well = enough cells in well; Call = inactive
Kirrel1 #1: Tnf reporter robust z-score = -0.66; fewer than 50 cells in well = enough cells in well; Call = inactive
Kirrel1 #2: Tnf reporter robust z-score = 0.55; fewer than 50 cells in well = enough cells in well; Call = inactive
Tdrd12: fewer than 50 cells in well = fewer than 50 cells per well; well left out of calls; Call = inactive
Cpt1b: Tnf reporter robust z-score = -0.69; fewer than 50 cells in well = enough cells in well; Call = inactive
Cyp2g1: Tnf reporter robust z-score = -0.73; fewer than 50 cells in well = enough cells in well; Call = inactive
Spesp1: Tnf reporter robust z-score = -0.99; fewer than 50 cells in well = enough cells in well; Call = inactive
Nuak1: Tnf reporter robust z-score = -0.81; fewer than 50 cells in well = enough cells in well; Call = inactive
Dnajc9: Tnf reporter robust z-score = 0.68; fewer than 50 cells in well = enough cells in well; Call = inactive
Kif12: Tnf reporter robust z-score = -0.27; fewer than 50 cells in well = enough cells in well; Call = inactive
Prl2b1: Tnf reporter robust z-score = 0.49; fewer than 50 cells in well = enough cells in well; Call = inactive

Limited to “Tnf reporter robust z-score” (2 entries from above):
Lingo2 = -0.08
Kirrel1 #1 = -0.66
